# Source: PubChem BioAssay AID1259308 (NCATS, 2017)
# Assay: 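Genes whose loss raises luciferase production in HEK293 cells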 (primary screen)
# System: human HEK293 embryonic kidney cells stably expressing firefly luciferase (HEK-CMV-Luc2-Hygro)
# Knock-down reagent: single siRNA against human genes, 0.8 pmol siRNA per well
# Timing: 72 h
# Read-out: 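Luciferase light (ONE-Glo) measured on one replicate plate set and viability (CellTiter-Glo) on the other, scaled to a negative control siRNA, with robust z-scores and luciferase per cell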
# Direction: total luciferase, z-score and total luciferase, % of control: higher = more reporter protein produced; luciferase per cell, z-score: higher = more reporter output per viable cell
# Rule for the call: 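Active when the median/MAD z-score for overall luciferase is greater than 3; a gene was taken forward for validation with new siRNAs if at least two of its three siRNAs passed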
# Calls: active = raised luciferase; inactive = no rise
# In all, the deposit lists about 59,000 reagents; below is a random part of them. About 1,510 of them (2.6%) were called active. 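Calls use total luciferase alone and ignore viability, so some active siRNAs may act by altering cell number.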 Entries without a mark were called inactive. The numbers tell different reagents against one gene apart. Further read-outs or replicates are left out here.
gene knocked down,siRNA no.,"total luciferase, z-score","total luciferase, % of control","luciferase per cell, z-score"
SLC8A1,1,-0.511,71.7,-0.461
SLC8A1,2,-0.215,77.6,-1.37
SLC8A1,3,-0.00644,81.8,-0.391
ZNF18 (zinc finger protein 18),1,1.48,111,1.55
ZNF18 (zinc finger protein 18),2,0.344,88.7,0.111
ZNF18 (zinc finger protein 18),3,-0.498,72,-0.644
TIGD6 (tigger transposable element derived 6),1,-0.948,63,-0.824
TIGD6 (tigger transposable element derived 6),2,-0.00497,81.8,-0.0074
TIGD6 (tigger transposable element derived 6),3,1.13,104,0.478
TIGD6 (tigger transposable element derived 6),4,0.563,93.1,0.554
TIGD6 (tigger transposable element derived 6),5,0.286,87.6,0.664
TIGD6 (tigger transposable element derived 6),6,0.254,86.9,0.0421
EDDM3A (epididymal protein 3A),1,-0.747,67,-0.437
EDDM3A (epididymal protein 3A),2,0.08,83.5,0.629
EDDM3A (epididymal protein 3A),3,-0.941,63.2,-0.809
RASAL1 (RAS protein activator like 1),1,-2.01,41.8,-3.12
RASAL1 (RAS protein activator like 1),2,-1.65,49.1,-1.28
RASAL1 (RAS protein activator like 1),3,1.11,104,0.355
NHERF2 (NHERF family PDZ scaffold protein 2),1,0.335,88.5,-0.0906
NHERF2 (NHERF family PDZ scaffold protein 2),2,0.645,94.7,-0.0313
NHERF2 (NHERF family PDZ scaffold protein 2),3,-1.01,61.9,-1.62
FAM131B (family with sequence similarity 131 member B),1,0.616,94.1,-0.0204
FAM131B (family with sequence similarity 131 member B),2,1.27,107,1.85
FAM131B (family with sequence similarity 131 member B),3,-2.36,34.9,-3.99
ZNF428 (zinc finger protein 428),1,0.777,97.3,1.25
ZNF428 (zinc finger protein 428),2,-0.299,75.9,-0.299
ZNF428 (zinc finger protein 428),3,0.0766,83.4,0.416

In a second layout: results already given
gene knocked down	siRNA no.	total luciferase, z-score	total luciferase, % of control	luciferase per cell, z-score
TIGD6 (tigger transposable element derived 6)	5	0.286	87.6	0.664
TIGD6 (tigger transposable element derived 6)	6	0.254	86.9	0.0421
EDDM3A (epididymal protein 3A)	1	-0.747	67	-0.437
EDDM3A (epididymal protein 3A)	2	0.08	83.5	0.629
EDDM3A (epididymal protein 3A)	3	-0.941	63.2	-0.809
RASAL1 (RAS protein activator like 1)	1	-2.01	41.8	-3.12
RASAL1 (RAS protein activator like 1)	2	-1.65	49.1	-1.28
RASAL1 (RAS protein activator like 1)	3	1.11	104	0.355
NHERF2 (NHERF family PDZ scaffold protein 2)	1	0.335	88.5	-0.0906
NHERF2 (NHERF family PDZ scaffold protein 2)	2	0.645	94.7	-0.0313
NHERF2 (NHERF family PDZ scaffold protein 2)	3	-1.01	61.9	-1.62

The results go on.
gene knocked down,siRNA no.,"total luciferase, z-score","total luciferase, % of control","luciferase per cell, z-score"
CBR3 (carbonyl reductase 3),1,-1.39,54.3,-1.31
CBR3 (carbonyl reductase 3),2,-0.225,77.4,-0.54
CBR3 (carbonyl reductase 3),3,0.287,87.6,0.486
ZNF281 (zinc finger protein 281),1,0.0212,82.3,-0.651
ZNF281 (zinc finger protein 281),2,0.417,90.2,0.265
ZNF281 (zinc finger protein 281),3,0.434,90.5,0.885
RNASE8 (ribonuclease A family member 8),1,0.0791,83.5,-0.412
RNASE8 (ribonuclease A family member 8),2,-0.917,63.7,-1.21
RNASE8 (ribonuclease A family member 8),3,0.471,91.3,0.554
SELENOH (selenoprotein H),1,1.39,110,1.23
SELENOH (selenoprotein H),2,-0.99,62.2,-0.969
SELENOH (selenoprotein H),3,2.79,137,2.68
TALDO1 (transaldolase 1),1,-0.344,75,0.295
TALDO1 (transaldolase 1),2,2.44,130,1.66
TALDO1 (transaldolase 1),3,-0.662,68.7,-0.885
PARL (presenilin associated rhomboid like),1,-1.95,43.2,-2.02
PARL (presenilin associated rhomboid like),2,-1.23,57.5,-1.17
PARL (presenilin associated rhomboid like),3,-0.112,79.7,0.236
XIRP1 (xin actin binding repeat containing 1),1,1.91,120,1.36
XIRP1 (xin actin binding repeat containing 1),2,2.82,138,2.88
XIRP1 (xin actin binding repeat containing 1),3,0.842,98.6,0.993
PRXL2B (peroxiredoxin like 2B),1,1.51,112,1.33
PRXL2B (peroxiredoxin like 2B),2,-0.59,70.1,0.705
PRXL2B (peroxiredoxin like 2B),3,0.941,101,0.371
SHLD2 (shieldin complex subunit 2),1,-0.382,74.3,1.77
SHLD2 (shieldin complex subunit 2),2,0.961,101,0.329
SHLD2 (shieldin complex subunit 2),3,-0.596,70,-0.607
ADGRL2 (adhesion G protein-coupled receptor L2),1,-0.136,79.2,-1.06
ADGRL2 (adhesion G protein-coupled receptor L2),2,-0.319,75.5,-0.513
ADGRL2 (adhesion G protein-coupled receptor L2),3,0.107,84,-0.538
PHIP (PHIP subunit of CUL4-Ring ligase complex),1,-1.71,47.8,-1.25
PHIP (PHIP subunit of CUL4-Ring ligase complex),2,-0.0952,80,-0.327
PHIP (PHIP subunit of CUL4-Ring ligase complex),3,0.992,102,0.42
RNF13 (ring finger protein 13),1,-0.616,69.6,-0.999
RNF13 (ring finger protein 13),2,-0.886,64.3,0.225
RNF13 (ring finger protein 13),3,-0.115,79.6,-0.471
ZDHHC17 (zDHHC palmitoyltransferase 17),1,-0.394,74.1,-0.324
ZDHHC17 (zDHHC palmitoyltransferase 17),2,1.51,112,1.03
ZDHHC17 (zDHHC palmitoyltransferase 17),3,-2.46,32.9,-1.81
MRFAP1L1 (Morf4 family associated protein 1 like 1),1,-0.11,79.7,0.203
MRFAP1L1 (Morf4 family associated protein 1 like 1),2,1.22,106,1.02
MRFAP1L1 (Morf4 family associated protein 1 like 1),3,0.387,89.6,0.502
SOCS2 (suppressor of cytokine signaling 2),1,0.101,83.9,0.525
SOCS2 (suppressor of cytokine signaling 2),2,-0.789,66.2,-0.174
SOCS2 (suppressor of cytokine signaling 2),3,0.196,85.8,-0.651
MAP2K1 (mitogen-activated protein kinase kinase 1),1,-0.103,79.8,0.197
MAP2K1 (mitogen-activated protein kinase kinase 1),2,-0.477,72.4,0.239
MAP2K1 (mitogen-activated protein kinase kinase 1),3,-0.472,72.5,-0.161
